Reference: paper PMC3947464 (ChemMedChem, 2013)

Key:
U937 cells = test: MTT anti-proliferation assay, U937; assay type: cell-based; settings: Homo sapiens, U-937, 48 h, read-out: IC50 tumor cell growth inhibition U937
HL60 cells = test: MTT anti-proliferation assay, HL60; assay type: cell-based; settings: Homo sapiens, HL-60, 48 h, read-out: IC50 tumor cell growth inhibition HL60
MCF7 cells = test: MTT anti-proliferation assay, MCF7; assay type: cell-based; settings: Homo sapiens, MCF7, 48 h, read-out: IC50 tumor cell growth inhibition MCF7
PC3 cells = test: MTT anti-proliferation assay, PC3; assay type: cell-based; settings: Homo sapiens, PC-3, 48 h, read-out: IC50 tumor cell growth inhibition PC3
U937 xenograft = test: In vivo antitumor assay against U937 xenograft; set-up: species or system athymic nude mice; settings: 100 mg/kg/d intragastric, 16 days

O=C(CCCCCCC(=O)Nc1ccccc1)NO [SAHA, Suberoyl anilide hydroxamic acid, reference compound]
IC50 (U937 cells): 1.38 ± 0.09 µM
IC50 (HL60 cells): 1.44 ± 0.06 µM
IC50 (MCF7 cells): 5.09 ± 0.21 µM
IC50 (PC3 cells): 6.33 ± 0.22 µM
inhibitory ratio (tumor weight) (U937 xenograft): 24.97%
